Test results as given in patent publication US20240287134A1, “PEPTIDES FOR USE AS SENOTHERAPEUTIC AGENTS” (FUNDACIÓN PROFESOR NOVOA SANTOS, priority 2019, published 2024).

System: chondrocytes
Assay: Visualization of peptide internalization (TMR fluorescence)
Assay type: cell-based, human
Details: 16 hours, fluorescence microscopy

| Substance | subcellular location of TMR-labelled peptide |
| --- | --- |
| Nt-FKGVKDRVKGK-Ct (TMR label) [TUB1, TMR-labelled] | located mainly at the cytoplasmic level |
| Nt-GKSDPYHATSGALSPAKD-Ct (N-terminal TMR label) [YSA1, residues 242-259 of the C-terminal domain of Cx43; labelled at N-terminus with TMR fluorophore] | located mainly at the cytoplasmic level |
